Measurements taken from patent publication US20250382386A1.
No constants are given. Whether binding was seen depends on the method and setting. Some results given as binding are weak or reduced against the parent protein; the word gives no strength.

By UniProt entry, the sequences of proteins in these tests, tags left out. Residues count along the entry.
UniProt P37023, residues 22-503: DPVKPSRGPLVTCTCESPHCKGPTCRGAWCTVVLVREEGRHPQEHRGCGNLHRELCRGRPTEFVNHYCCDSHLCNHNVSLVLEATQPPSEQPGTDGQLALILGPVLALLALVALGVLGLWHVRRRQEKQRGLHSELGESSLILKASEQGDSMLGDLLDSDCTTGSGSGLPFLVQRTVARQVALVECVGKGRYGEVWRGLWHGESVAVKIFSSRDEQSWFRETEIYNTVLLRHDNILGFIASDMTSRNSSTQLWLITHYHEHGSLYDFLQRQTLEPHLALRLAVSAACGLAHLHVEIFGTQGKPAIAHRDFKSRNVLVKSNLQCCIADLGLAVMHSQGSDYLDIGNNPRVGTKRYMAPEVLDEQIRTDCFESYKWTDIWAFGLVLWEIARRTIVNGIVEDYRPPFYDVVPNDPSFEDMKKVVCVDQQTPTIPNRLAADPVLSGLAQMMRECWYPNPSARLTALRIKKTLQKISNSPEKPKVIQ

Key:
[1] = molecular target: human ALK-1 on cells (CHO-K1-hALK-1 cells; HUVEC; A172) (human) (UniProt P37023); test: flow cytometry competition on CHO-K1-hALK1 cells, BMP9 titrated, competitor BEV813
[2] = molecular target: human ALK-1 on cells (CHO-K1-hALK-1 cells; HUVEC; A172) (human) (UniProt P37023); test: flow cytometry on CHO-K1-hALK1 cells, MFI of bound BEV813; BMP9 at 12 fixed concentrations (0 to 50.0 nM) competes with BEV813

B1: BMP9 (Acro, GD2-H5211) (ligand, UniProt Q9UK05 320-429, looked up)
chain: SAGAGSHCQKTSLRVNFEDIGWDSWIIAPKEYEAYECKGGCFFPLADDVTPTKHAIVQTLVHLKFPTKVGKACCVPTKLSPISVLYKDDMGVPTLKYHYEGMSVAECGCR
- binding [1]: binds
- binding [2]: binds
